Reference: paper PMC7558399, “In Vitro Selective Growth-Inhibitory Activities of Phytochemicals, Synthetic Phytochemical Analogs, and Antibiotics against Diarrheagenic/Probiotic Bacteria and Cancer/Normal Intestinal Cells” (Pharmaceuticals, 2020)

Tests used:
[1] = tested on: normal cells/cancer cells; test: Selective index SIc; conditions: SIc = log (IC50 against FHs 74 Int / x¯ -IC50 against cancer intestinal cells)
[2] = tested on: probiotic bacteria/diarrheagenic bacteria; test: Selective index SIb; conditions: SIb = log (x¯ -MIC against probiotic strains / x¯ -MIC against diarrheagenic strains)
[3] = tested on: normal cells/diarrheagenic bacteria; test: Selective index SIa; conditions: SIa = log (IC80 against FHs 74 Int / x¯ -MIC against diarrheagenic strains)

Oc1cccc2cccnc12 [8HQ, 8-hydroxyquinoline]
SI (c) normal cells/cancer cells [1]: 1.1

COc1ccc2cc3[n+](cc2c1OC)CCc1cc2c(cc1-3)OCO2 [BR, berberine chloride]
SI (c) normal cells/cancer cells [1]: −1.1

O=C(N[C@H](CO)[C@H](O)c1ccc([N+](=O)[O-])cc1)C(Cl)Cl [CA, chloramphenicol]
SI (c) normal cells/cancer cells [1]: −1.1
SI (b) probiotic bacteria/diarrheagenic bacteria [2]: −0.4
SI (a) normal cells/diarrheagenic bacteria [3]: 1.8

CO/N=C(\C(=O)N[C@@H]1C(=O)N2C(C(=O)O)=C(CSc3nc(=O)c(=O)[nH]n3C)CS[C@H]12)c1csc(N)n1 [CF, ceftriaxone sodium]
SI (c) normal cells/cancer cells [1]: 0
SI (b) probiotic bacteria/diarrheagenic bacteria [2]: −0.4
SI (a) normal cells/diarrheagenic bacteria [3]: 1.2

Oc1c(Cl)cc(Cl)c2cccnc12 [CLX, 5,7-dichloroquinolin-8-ol]
SI (c) normal cells/cancer cells [1]: −0.7
SI (b) probiotic bacteria/diarrheagenic bacteria [2]: 1

O=S(=O)(O)c1cc(I)c(O)c2ncccc12 [FRN, 7-iodo-8-hydroxyquinoline-5-sulfonic acid]
SI (c) normal cells/cancer cells [1]: −0.5
SI (b) probiotic bacteria/diarrheagenic bacteria [2]: −0.3
SI (b) probiotic bacteria/diarrheagenic bacteria ([2]; listed as ferron): −1 to −0.03
SI (a) normal cells/diarrheagenic bacteria [3]: −1.2

O=[N+]([O-])c1ccc(O)c2ncccc12 [NXL, 5-nitroquinolin-8-ol]
SI (c) normal cells/cancer cells [1]: −0.6
SI (b) probiotic bacteria/diarrheagenic bacteria [2]: 0.2
SI (b) probiotic bacteria/diarrheagenic bacteria ([2]; listed as nitroxoline): 0.2–1.1
SI (a) normal cells/diarrheagenic bacteria [3]: −1.2

O=C(O)c1ccccc1O [SA, salicylic acid]
SI (c) normal cells/cancer cells [1]: −1.1
SI (b) probiotic bacteria/diarrheagenic bacteria [2]: −0.2
SI (a) normal cells/diarrheagenic bacteria [3]: −0.7

C[n+]1cc2c3c(ccc2c2ccc4cc5c(cc4c21)OCO5)OCO3 [SG, sanguinarine chloride]
SI (c) normal cells/cancer cells [1]: 0.1
SI (b) probiotic bacteria/diarrheagenic bacteria [2]: −0.6
SI (b) probiotic bacteria/diarrheagenic bacteria ([2]; listed as sanguinarine): −1 to −0.03
SI (a) normal cells/diarrheagenic bacteria [3]: −1.9

O=C(OC[C@H]1O[C@@H](OC(=O)c2cc(O)c(O)c(OC(=O)c3cc(O)c(O)c(O)c3)c2)[C@H](OC(=O)c2cc(O)c(O)c(OC(=O)c3cc(O)c(O)c(O)c3)c2)[C@@H](OC(=O)c2cc(O)c(O)c(OC(=O)c3cc(O)c(O)c(O)c3)c2)[C@@H]1OC(=O)c1cc(O)c(O)c(OC(=O)c2cc(O)c(O)c(O)c2)c1)c1cc(O)c(O)c(OC(=O)c2cc(O)c(O)c(O)c2)c1 [TA, tannic acid]
SI (c) normal cells/cancer cells [1]: −0.7
SI (b) probiotic bacteria/diarrheagenic bacteria [2]: −0.03
SI (a) normal cells/diarrheagenic bacteria [3]: −1.9

CN[C@H](CC(C)C)C(=O)N[C@H]1C(=O)N[C@@H](CC(N)=O)C(=O)N[C@H]2C(=O)N[C@H]3C(=O)N[C@H](C(=O)N[C@H](C(=O)O)c4cc(O)cc(O)c4-c4cc3ccc4O)[C@H](O)c3ccc(c(Cl)c3)Oc3cc2cc(c3O[C@@H]2O[C@H](CO)[C@@H](O)[C@H](O)[C@H]2O[C@H]2C[C@](C)(N)[C@H](O)[C@H](C)O2)Oc2ccc(cc2Cl)[C@H]1O [VM, vancomycin hydrochloride]
SI (c) normal cells/cancer cells [1]: 0
SI (b) probiotic bacteria/diarrheagenic bacteria [2]: −1
SI (a) normal cells/diarrheagenic bacteria [3]: 0.3

Where a name gives a salt, the structure may show the parent alone.
